Some of the results follow. The main result of the screen is listed elsewhere. These columns were measured beside it and carry no call. Most of these compounds were active or inconclusive in the main read-out, so they are no random draw. The note in brackets gives the kind of curve behind each potency; many fits are weak.
Assay: qHTS Assay for Lipid Storage Modulators in Drosophila S3 Cells;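 on cell number change: cells counted by Cell Tracker Red CMTPX staining in the red channel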
Conditions: BODIPY lipid droplet fluorescence, 18-24 h; for cell number change: measured here: cell count max response, cells fed with added oleic acid
Method in brief: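 Drosophila S3 cells loaded with oleic acid (400 uM, as added) and compounds at several concentrations; lipid droplets imaged by 488-nm laser-scanning cytometry, 500–530 nm intensity and object ratio to cell channel. Percent activity normalized to 20 uM Triacsin C.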

[1] = measured here: lipid fluorescence (Fed channel) AC50, cells fed with added oleic acid
[2] = measured here: cell number channel AC50, cells fed with added oleic acid

Row | SMILES | cell number change | AC50 [1] | AC50 [2]
1 | CC(=O)c1ccc(NC2OC(C)C(O)C(O)C2O)cc1 (stereo not drawn) | -25.5% | 3.26 µM [falling, full curve, poor fit] | 
2 | CC(C)C(=O)N1CCN(c2ccccc2NC(=O)Cc2ccc(Cl)cc2)CC1 | -2.02% |  | 0.00411 µM [falling, full curve, poor fit]
3 | CC(=O)c1cccc(NC(=O)N2CCCC2C(=O)Nc2ccc3c(c2)OCO3)c1 (stereo not drawn) | -48.2% | 0.92 µM [falling, full curve, poor fit] | 0.651 µM [falling, full curve, poor fit]
4 | C=CCOC(=O)C1=C(C)Nc2nnnn2C1c1cccs1 (stereo not drawn) | -8.45% | 1.3 µM [rising, partial curve, poor fit] | 
5 | CCOC(=O)C1(CC2CCCCO2)CCN(S(=O)(=O)c2cccc(F)c2)CC1 (stereo not drawn) | -4.24% | 29.1 µM [falling, single point] | 
6 | Cc1onc(-c2c(Cl)cccc2Cl)c1C(=O)N1CCN(c2ncccn2)CC1 | 1.31% |  | 
7 | Cc1ccc(/C=C/C(=O)NC2CCCCCCC2)o1 | -24.7% | 29.1 µM [falling, single point] | 
8 | O=C(NCCOc1ccccc1)c1cc(S(=O)(=O)N2CCOCC2)ccc1F | 2.36% |  | 
9 | O=C(c1ccc(F)cc1Cl)N(c1ccccn1)C1CCCCC1 |  | 4.61 µM [falling, single point] | 6.51 µM [rising, single point]
10 | O=S(=O)(c1cccc(-c2nc3n(n2)Cc2ccccc2-3)c1)N1CCCC1 | 3.44% | 20.6 µM [falling, single point] | 
11 | COc1cccc(CNC(=O)c2ccccc2N)c1 | 15.5% | 29.1 µM [rising, single point] | 
12 | Cc1ccc(S(=O)(=O)CCC(=O)Oc2ccc3c(C)cc(=O)oc3c2)cc1 | 13.7% |  | 
13 | CC1=NOC(=O)/C1=C/c1ccc2c(c1)OCO2 | 24.7% | 0.0206 µM [rising, partial curve, poor fit] | 
14 | Cc1nn(-c2ccccc2)nc1C(=O)NN | 15.1% | 6.51 µM [rising, single point] | 
15 | CCOC(=O)c1[nH]c(=O)[nH]c1CNc1ccccc1C#N | 3.52% |  | 
16 | Nn1c(SCc2ccccc2)nnc1-c1ccco1 | -62.7% |  | 23.1 µM [falling, single point]
17 | CC1(c2nnc(Cc3ccccc3)o2)CC(c2ccccc2Br)=NO1 (stereo not drawn) | 18.7% | 2.91 µM [rising, partial curve] | 3.66 µM [falling, single point]
18 | O=S(=O)(c1cccc(-c2nc3ccccc3s2)c1)N1CCCC1 | 1.52% |  | 
19 | CCOC(=O)c1c(NC(=S)Nc2ccc(Cl)cc2)sc2c1CCN(C)C2 | 23.4% |  | 
20 | COC(=O)C(NC(C)=O)(Nc1ccccc1)C(=O)OC | -27.1% | 29.1 µM [falling, single point] | 
21 | CN(CC(=O)Nc1ccc(F)cc1)C(=O)c1cc(-c2ccco2)nc2ccccc12 |  | 0.206 µM [rising, full curve, poor fit] | 2.91 µM [rising, partial curve, poor fit]

Row | SMILES | cell number change | AC50 [1] | AC50 [2]
22 | Cc1ccc(NC(=O)C2CSC3(C)CCC(=O)N23)cc1S(=O)(=O)N1CCOCC1 (stereo not drawn) | 4.02% |  | 
23 | CCC(C)(C)NC(=S)Nc1ccc(-c2nc3ccc(C)cc3s2)cc1 | -41% | 10.3 µM [falling, partial curve] | 7.31 µM [falling, partial curve]
24 | Cc1nnc(N2CCN(c3ccccc3)CC2)[nH]c1=O | -17.3% | 29.1 µM [falling, single point] | 3.66 µM [falling, single point]
25 | COc1cccc(-n2nnc3c(=O)n(Cc4ccccc4F)cnc32)c1 | -28.9% | 9.2 µM [falling, partial curve] | 
26 | CC(C)(C)S(=O)(=O)c1cnc2c(-c3ccc(F)cc3)cnn2c1N | 2.79% | 0.58 µM [rising, single point] | 
27 | OC(CNc1ccccc1)COc1ccc(OCC(O)CNc2ccccc2)cc1 (stereo not drawn) | -24.8% |  | 
28 | CCn1c(COc2ccccc2)nnc1SCc1ccc(C#N)cc1 | -29.8% | 32.6 µM [falling, single point] | 
29 | Cc1cc(C(=O)NNC(=O)CCCOc2ccccc2)c(C)o1 | -35.3% |  | 4.11 µM [falling, partial curve]
30 | COc1ccc(OC)c(N(CC(=O)N2CCC(C)CC2)S(=O)(=O)c2ccc(OC)c(OC)c2)c1 | -28.6% | 0.231 µM [falling, full curve, poor fit] | 
31 | O=S(=O)(c1ccc(F)cc1)N1CCn2c(nc3ccccc32)C1 | -6.71% | 6.51 µM [rising, single point] | 
32 | CCOC(=O)C1(CC2CC2)CCN(Cc2ccc(OC)cc2F)CC1 | -5.35% |  | 
33 | COc1ccc(N2CCN(C(=O)CCNC(=O)c3ccc(C(C)(C)C)cc3)CC2)cc1 |  | 6.51 µM [falling, partial curve, poor fit] | 
34 | COCCNC(=O)c1ccccc1-c1nc(-c2ccccc2Cl)no1 | 27.6% | 0.116 µM [rising, full curve, poor fit] | 
35 | CC(C)n1c(N2CCN(C(=O)N3CCCCC3)CC2)nc2ccccc21 | -23.8% | 20.6 µM [falling, partial curve, poor fit] | 
36 | C#CC1(O)CC(C)N(C)C(C)C1 (stereo not drawn) | -50% | 2.59 µM [falling, full curve] | 6.51 µM [falling, full curve]
37 | Nn1c(SCC(=O)NC2CCCCC2)nnc1C1CC1 | 129% |  | 
38 | O=C(COC(=O)C1=COCCO1)Nc1ccc(Oc2ccccc2)cc1 |  | 0.651 µM [falling, single point] | 
39 | CCC1SC(=Nc2cccc(C)c2)NC1=O (stereo not drawn) | 19% | 6.51 µM [falling, single point] | 
40 | COc1ccc(NC(=O)[C@@H](NC(=O)c2ccccc2F)C(C)C)cc1S(=O)(=O)N1CCOCC1 | 64.4% | 29.1 µM [rising, single point] | 
41 | COc1ccc(N2CC(NS(=O)(=O)c3ccc4ccccc4c3)CC2=O)cc1OC (stereo not drawn) | 56.1% | 18.4 µM [rising, partial curve] | 9.2 µM [rising, partial curve]
42 | CC1CCN(CC(=O)Nc2ccc(Br)cc2[N+](=O)[O-])CC1 | 49.2% |  | 

Some values from the results shown:
AC50 [1] with CN(CC(=O)Nc1ccc(F)cc1)C(=O)c1cc(-c2ccco2)nc2ccccc12 reads 0.206 µM [rising, full curve, poor fit]
AC50 [2] with COc1ccc(N2CC(NS(=O)(=O)c3ccc4ccccc4c3)CC2=O)cc1OC (stereo not drawn) reads 9.2 µM [rising, partial curve]

Continued:

Row | SMILES | cell number change | AC50 [1] | AC50 [2]
43 | CCOc1cc2c(C#N)c(N3CCNCC3)nc(N)c2c(N)n1 | -11.6% |  | 
44 | CC(NC(=O)c1cccc2ccccc12)c1ccc2c(c1)CCCC2 (stereo not drawn) | -13.4% | 13 µM [falling, partial curve, poor fit] | 
45 | CN(CCCC(=O)NCc1ccco1)S(=O)(=O)c1ccccc1 | 7.81% |  | 
46 | Cc1cc(C(=O)COc2ccc(F)cc2Br)c(C)n1C1CC1 | 111% |  | 16.4 µM [rising, partial curve]
47 | O=C(O)c1ccc(NC(=O)c2cn(-c3ccccc3)nc2-c2ccccc2)cc1 | 90.1% |  | 
48 | C=CCN1C(=O)c2ccc(C(=O)N3CCN(S(=O)(=O)c4ccccc4Br)CC3)cc2C1=O | -31.6% | 23.1 µM [falling, single point] | 20.6 µM [falling, single point]
49 | CCC1(C(=O)c2ccc(Cl)cc2)C2c3ccccc3OC(=O)C21C(=O)Nc1ccccc1 (stereo not drawn) | -43.6% | 11.6 µM [falling, partial curve, poor fit] | 25.9 µM [falling, partial curve]
50 | Cc1ccc(S(=O)(=O)N2CCC(C(=O)Nc3ccncc3)CC2)cc1 | -36.7% |  | 6.51 µM [falling, partial curve]
51 | Cc1ccc(/C=C(/C#N)C(=O)NC(C)c2ccccc2)o1 (stereo not drawn) | 6.51% | 0.92 µM [rising, full curve, poor fit] | 
52 | Cc1ccc(S(=O)(=O)N(C)Cc2ccccc2)cc1C(=O)N1CCCCC1 | -27.4% | 20.6 µM [falling, single point] | 
53 | CCN(Cc1ccc(OC)c(F)c1)C(=O)c1oc2ccccc2c1COC | 14.1% | 29.1 µM [falling, single point] | 
54 | Cc1ccc(S(=O)(=O)Nc2c(C)nc3nc(C)[nH]n3c2=O)c(C)c1 | -11.9% | 8.2 µM [falling, single point] | 
55 | CC(C)Cc1cc(C(=O)Nc2cc(C(F)(F)F)ccc2Cl)no1 | 28% | 0.103 µM [rising, full curve, poor fit] | 
56 | CCOC(=O)c1oc2ccccc2c1NC(=O)c1cccc(OC)c1 | -23.8% |  | 
57 | Cc1ccc(SCCC(=O)NCCSCc2ccco2)cc1 | 4.13% | 0.794 µM [falling, full curve] | 
58 | O=C(CSc1nnc(C2CC2)n1Cc1ccccc1)c1cc2ccccc2o1 | 16.6% | 1.46 µM [rising, full curve] | 0.00461 µM [falling, full curve, poor fit]
59 | COc1ccc(OC)c(NC(=O)Nc2cccnc2)c1 | 5.49% |  | 
60 | O=C(O)C1CSC(c2ccccc2Cl)N1C(=O)c1ccc(Cl)cc1 (stereo not drawn) | 5.06% | 29.1 µM [falling, single point] | 
61 | COc1ccc2c(c1)CCCN2S(=O)(=O)c1ccc(Cl)cc1 | -36.5% | 10.3 µM [falling, partial curve] | 32.6 µM [falling, single point]
62 | Cc1ccc(C(=O)OCn2ncc(Cl)c(Cl)c2=O)cc1 | -26.4% | 6.51 µM [falling, single point] | 
63 | CN(C)S(=O)(=O)c1ccc(N2CCCC2)c(C(=O)Nc2nc3ccc(F)cc3s2)c1 | 41.1% |  | 14.6 µM [rising, single point]

Source: PubChem BioAssay AID2685 (National Center for Advancing Translational Sciences (NCATS), 2010)
